Reference: PubChem BioAssay AID602313 (National Center for Advancing Translational Sciences (NCATS), 2012)
The whole screen tested about 390,000 compounds, of which about 760 (0.19%) were called active. Inconclusive results, whose numbers are uncertain, are shown with a selection of clear calls. Calls follow the shape of the dose curve; as a rule, active = well fitted inhibition curve with a large enough effect; inconclusive = small, poorly fitted or top-dose-only effect; inactive = flat fitted curve, though single readings scatter. Where the call is inconclusive, the potency comes from a doubtful curve fit.

Experiment: qHTS for Inhibitors of Vif-A3F Interactions: qHTS; also: nearly all actives have a fitted effect of over 65% in size; as to activity, negative = active: % of control where 0% means no effect
Details: HeLa A3F-eYFP + Vif (tagged APOBEC3F with the HIV-1 protein that degrades it), YFP fluorescence increase; series mostly up to 46.1 µM; activity, negative = active: at the top concentration
In short: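 HeLa cells stably expressing A3F-eYFP plus Vif, plated and incubated overnight at 37 deg C, then exposed to compounds overnight at 37 deg C. Blocked degradation read as raised yellow fluorescence (Ex 488/Em 500-530).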
Potency is read from the fitted curve at half-maximal effect.

Row | SMILES | Potency | activity, negative = active
1 | O=C(NCCCN1CCN(c2ccccc2)CC1)c1ccc2nc(CCc3ccccc3)oc2c1 | inconclusive: 0.316 µM [inhibitor, full curve, poor fit] | –
2 | CCCCCCCCCCSc1n[nH]c(N)n1 | inconclusive: 7.94 µM [inhibitor, partial curve, poor fit] | –
3 | CC1CCCCC1NC(=O)/C(C#N)=C/c1ccc2c(c1)OCCO2 (stereo not drawn) | inconclusive: 35.5 µM [inhibitor, single point] | –
4 | O=C(O)c1ccc(-c2nc(-c3ccccc3)cs2)cc1 | – | inactive: -0.797%
5 | CCc1ccc2nc3sc(C(=O)Nc4nnc(CC)s4)c(N)c3cc2c1 | inconclusive: 17.8 µM [inhibitor, partial curve, poor fit] | –
6 | N#C/C(=C\c1ccccc1[N+](=O)[O-])C(=O)NCc1ccccc1 | active: 12.6 µM | –
7 | Cc1ccnc(NC(=S)NC(=O)c2ccco2)c1 | inconclusive: 35.5 µM [inhibitor, single point] | –
8 | COc1cc2[nH]c(=S)nc(NCCc3ccc(C)cc3)c2cc1OC | inconclusive: 8.91 µM [inhibitor, partial curve, poor fit] | –
9 | CSc1cccc(NC(=S)N2CCC(N(C)C3CCCCCC3)CC2)c1 | – | inactive: 0.868%
10 | CCOc1ccc(CNC(=O)Cn2nc(C)c3nn(-c4ccc(Cl)cc4)c(C)c3c2=O)cc1OC | inconclusive: 31.6 µM [inhibitor, partial curve, poor fit] | –
11 | COc1ccc([N+](=O)[O-])cc1NS(=O)(=O)c1ccc(C)cc1 | – | inactive: -7.3%
12 | COc1ccc(C2C(C#N)=C(N)Oc3c2sc2nc(C)cc(C)c32)cc1 (stereo not drawn) | inconclusive: 20 µM [inhibitor, single point] | –
13 | COc1cc(/C=C2\SC(=S)N(NC(C)=O)C2=O)ccc1OC(=O)c1ccco1 | inconclusive: 25.1 µM [inhibitor, single point] | –
14 | COc1cccc(C(=O)OCCN2C(=O)c3ccccc3C2=O)c1OC | – | inactive: -1.55%
15 | CC(=O)N(/N=C/c1ccc(C)cc1)c1nc(CCl)cs1 | inconclusive: 6.31 µM [inhibitor, single point] | –
16 | O=C(Oc1ccc(Br)cc1)c1n[nH]c(=O)c2ccccc12 | inconclusive: 6.31 µM [inhibitor, single point] | –
17 | O=[N+]([O-])c1cc(Cl)ccc1NCCc1ccccn1 | inconclusive: 1 µM [inhibitor, full curve, poor fit] | –
18 | O=C1c2cccc3c(N4CCCCC4)ccc(c23)C(=O)N1c1ccccc1O | active: 8.91 µM | –
19 | CCCCC(NC(=O)Cc1c(C)c2cc3c(-c4ccccc4)coc3c(C)c2oc1=O)C(=O)O (stereo not drawn) | inconclusive: 22.4 µM [inhibitor, single point] | –
20 | O=S(=O)(Nc1nc2ccccc2nc1NCc1ccco1)c1ccc(Cl)cc1 | – | inactive: 1.8%
21 | Cc1ccc2nc(-c3cccnc3)cc(C(=O)Nc3ccccc3[N+](=O)[O-])c2c1 | – | inactive: 2.7%
22 | Cc1csc(SCC(=O)Nc2nnc(C)s2)n1 | inconclusive: 6.31 µM [inhibitor, single point] | –

Row | SMILES | Potency | activity, negative = active
23 | CCOC(=O)C1=C(c2ccccc2)N=c2s/c(=C\c3cccc(O)c3)c(=O)n2C1c1cccs1 (stereo not drawn) | inconclusive: 35.5 µM [inhibitor, single point] | –
24 | Cc1ccccc1-c1nnc(C2CCN(S(=O)(=O)c3ccc(Cl)cc3)CC2)o1 | inconclusive: 3.55 µM [inhibitor, single point] | –
25 | CSCCC(NC(=O)c1cccc(S(=O)(=O)N2CCN(C(C)=O)CC2)c1)c1nc2ccccc2[nH]1 (stereo not drawn) | inconclusive: 3.16 µM [inhibitor, single point] | –
26 | COC(C(=O)Nc1ccnn1C1CCN(Cc2ccccn2)CC1)c1ccccc1 (stereo not drawn) | inconclusive: 22.4 µM [inhibitor, partial curve, poor fit] | –
27 | COc1ccccc1CNC(=O)Cc1ccc(C)cc1 | inconclusive: 3.98 µM [inhibitor, single point] | –
28 | CC(=O)Nc1ccc(OCC(O)Cn2c3ccccc3c3ccccc32)cc1 (stereo not drawn) | inconclusive: 1.12 µM [inhibitor, partial curve, poor fit] | –
29 | CCc1ccc(NC(=O)CSc2ccc3nnc(CCNS(=O)(=O)c4ccc(OC)cc4)n3n2)cc1 | – | inactive: -1.45%
30 | Cc1onc(-c2ccccc2)c1-c1nc2ccccc2c(=O)o1 | inconclusive: 11.2 µM [inhibitor, partial curve, poor fit] | –
31 | COc1cccc(N2CCN(C(=O)CN(C)S(=O)(=O)c3ccc4c(c3)c(=O)n(C)c(=O)n4C)CC2)c1 | – | inactive: 1.6%
32 | C(=Cc1c[nH]c2ccccc12)c1ccc2ccccc2n1 | active: 25.1 µM | –
33 | COc1cc(/C=C2\SC(=S)N(NC(=O)c3ccc(O)cc3)C2=O)ccc1O | inconclusive: 35.5 µM [inhibitor, single point] | –
34 | CC1Cc2nc(SCC(=O)N3CCN(c4ccccc4)CC3)n(CCc3ccccc3)c(=O)c2S1 (stereo not drawn) | – | inactive: 1.67%
35 | COc1ccc(C(=O)CNc2ccc3ccccc3c2)cc1 | inconclusive: 5.01 µM [inhibitor, full curve, poor fit] | –
36 | CC(=O)Nc1ccc(SC[C@H](C)CN2CC[C@H](O)CCC2=O)cc1 | – | inactive: 0.49%
37 | O=C1OC(c2ccccc2)=N/C1=C\C=C\c1ccco1 | – | inactive: -3.23%
38 | O=[N+]([O-])c1ccc(N2CCN(Cc3ccccc3)CC2)s1 | inconclusive: 35.5 µM [inhibitor, single point] | –
39 | CC(C)CN1CCN(Cc2cccn2-c2cccnc2)CC1CCO (stereo not drawn) | inconclusive: 25.1 µM [inhibitor, single point] | –
40 | COc1ccc(Cl)cc1NC(=O)CN(c1cc(C)cc(C)c1)S(=O)(=O)c1c(C)n[nH]c1C | – | inactive: -11.4%
41 | Cc1cccc(NC(=O)Nc2ccc(C#N)cc2)n1 | inconclusive: 5.01 µM [inhibitor, single point] | –
42 | Cc1ccsc1C(=O)OCC(=O)NCCC1=CCCCC1 | inconclusive: 35.5 µM [inhibitor, single point] | –
43 | CCc1cccc2cc3c(N)c(C(=O)Nc4ccc(S(=O)(=O)N5CCCC5)cc4)sc3nc12 | inconclusive: 6.31 µM [inhibitor, partial curve, poor fit] | –

As a short view, some entries already given:
Row | SMILES | Potency | activity, negative = active
14 | COc1cccc(C(=O)OCCN2C(=O)c3ccccc3C2=O)c1OC | – | inactive: -1.55%
15 | CC(=O)N(/N=C/c1ccc(C)cc1)c1nc(CCl)cs1 | inconclusive: 6.31 µM [inhibitor, single point] | –
16 | O=C(Oc1ccc(Br)cc1)c1n[nH]c(=O)c2ccccc12 | inconclusive: 6.31 µM [inhibitor, single point] | –
17 | O=[N+]([O-])c1cc(Cl)ccc1NCCc1ccccn1 | inconclusive: 1 µM [inhibitor, full curve, poor fit] | –
